From publication doi:10.1101/2025.10.26.684598
Results are given in words; binding and its absence hold for the method and conditions named. In cells and extracts the contact can be indirect. Some entries that bind do so weakly or less than the wild type. Sequences can lack the tags named with a protein. One block for each binder: values may come before it.

Columns and labels:
[1] = target: T1, YokF residues 216-296 with HA2x (TNM-HA) (B. subtilis) (UniProt O32001); assay: co-IP
T1 sequence: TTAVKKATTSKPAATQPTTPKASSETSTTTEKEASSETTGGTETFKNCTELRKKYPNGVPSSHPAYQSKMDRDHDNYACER

[2] = target: T2, FlhA-HA (FlhA with HAx2) (B. subtilis) (UniProt P35620); assay: co-IP
T2 sequence: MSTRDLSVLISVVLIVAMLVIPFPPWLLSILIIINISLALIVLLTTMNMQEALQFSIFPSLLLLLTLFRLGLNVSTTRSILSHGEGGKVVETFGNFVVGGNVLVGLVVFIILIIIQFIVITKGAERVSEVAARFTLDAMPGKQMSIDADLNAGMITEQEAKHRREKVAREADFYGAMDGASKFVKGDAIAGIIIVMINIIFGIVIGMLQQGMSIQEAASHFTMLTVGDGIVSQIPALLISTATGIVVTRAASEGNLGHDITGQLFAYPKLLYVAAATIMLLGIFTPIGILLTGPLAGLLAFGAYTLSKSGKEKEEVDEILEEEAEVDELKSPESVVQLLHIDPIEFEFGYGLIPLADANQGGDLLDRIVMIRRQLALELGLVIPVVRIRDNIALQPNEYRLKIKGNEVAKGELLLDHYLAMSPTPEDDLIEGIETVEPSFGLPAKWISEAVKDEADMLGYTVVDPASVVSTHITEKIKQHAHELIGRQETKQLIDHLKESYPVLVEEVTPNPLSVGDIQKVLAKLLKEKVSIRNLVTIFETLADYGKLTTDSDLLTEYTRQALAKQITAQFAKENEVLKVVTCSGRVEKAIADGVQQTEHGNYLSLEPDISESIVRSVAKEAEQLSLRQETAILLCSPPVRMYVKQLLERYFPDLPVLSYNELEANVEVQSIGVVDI

binding [1]: binds
B1: YokF residues 1-215 with FLAG2x (TNase-FLAG) (domain or fragment, UniProt O32001 20-215)
chain: CSSNDSEKVSTEKETPQASTDVEKKTEQKESTKEKTADKSKEKDKKELVDVTLDRAVDGDTIKVTYNGNVDTVRYLLIDTPETKKPNSCVQPYGEDASKRNKELVNSGKLQLEFDKGDRRDKYGRLLAYVYVDGKSVQETLLKEGLARVAYVYEPNTKYIDQFKKDEQEAKSEKLSIWSKNGYVTDRGFNGCVKEK

binding [2]: binds
B2: YokF (native, in B. subtilis BSB1) (enzyme, UniProt O32001 20-296)
chain: CSSNDSEKVSTEKETPQASTDVEKKTEQKESTKEKTADKSKEKDKKELVDVTLDRAVDGDTIKVTYNGNVDTVRYLLIDTPETKKPNSCVQPYGEDASKRNKELVNSGKLQLEFDKGDRRDKYGRLLAYVYVDGKSVQETLLKEGLARVAYVYEPNTKYIDQFKKDEQEAKSEKLSIWSKNGYVTDRGFNGCVKEKTTAVKKATTSKPAATQPTTPKASSETSTTTEKEASSETTGGTETFKNCTELRKKYPNGVPSSHPAYQSKMDRDHDNYACER
